# Data: article PMC11470070, “Structural basis for synthase activation and cellulose modification in the E. coli Type II Bcs secretion system” (Nature Communications, 2024)
# Legend:
# [1] = target: T1, BcsA cellulose synthase (BcsA^HA-FLAG) (E. coli, UniProt P37653 1-872); assay: cryo-EM structure; same sample and grids as a1; class of particles with a c-di-GMP-free BcsA synthase (non-saturated macrocomplex), with local refinements; both purified
# T1 construct: BcsA, E. coli; amplified within the genomic region bcsRQA^HA-FLAGB from genomic DNA of the E. coli 1094 bcsA^HA-FLAG strain; domains NTD, TMD, GT, PilZ, C-terminal tail; Expressed from the whole genomic region bcsRQAB of strain 1094; One copy in the macrocomplex; source: for the BcsF variants E. coli Δbcs BL21*(DE3)
# T1 sequence: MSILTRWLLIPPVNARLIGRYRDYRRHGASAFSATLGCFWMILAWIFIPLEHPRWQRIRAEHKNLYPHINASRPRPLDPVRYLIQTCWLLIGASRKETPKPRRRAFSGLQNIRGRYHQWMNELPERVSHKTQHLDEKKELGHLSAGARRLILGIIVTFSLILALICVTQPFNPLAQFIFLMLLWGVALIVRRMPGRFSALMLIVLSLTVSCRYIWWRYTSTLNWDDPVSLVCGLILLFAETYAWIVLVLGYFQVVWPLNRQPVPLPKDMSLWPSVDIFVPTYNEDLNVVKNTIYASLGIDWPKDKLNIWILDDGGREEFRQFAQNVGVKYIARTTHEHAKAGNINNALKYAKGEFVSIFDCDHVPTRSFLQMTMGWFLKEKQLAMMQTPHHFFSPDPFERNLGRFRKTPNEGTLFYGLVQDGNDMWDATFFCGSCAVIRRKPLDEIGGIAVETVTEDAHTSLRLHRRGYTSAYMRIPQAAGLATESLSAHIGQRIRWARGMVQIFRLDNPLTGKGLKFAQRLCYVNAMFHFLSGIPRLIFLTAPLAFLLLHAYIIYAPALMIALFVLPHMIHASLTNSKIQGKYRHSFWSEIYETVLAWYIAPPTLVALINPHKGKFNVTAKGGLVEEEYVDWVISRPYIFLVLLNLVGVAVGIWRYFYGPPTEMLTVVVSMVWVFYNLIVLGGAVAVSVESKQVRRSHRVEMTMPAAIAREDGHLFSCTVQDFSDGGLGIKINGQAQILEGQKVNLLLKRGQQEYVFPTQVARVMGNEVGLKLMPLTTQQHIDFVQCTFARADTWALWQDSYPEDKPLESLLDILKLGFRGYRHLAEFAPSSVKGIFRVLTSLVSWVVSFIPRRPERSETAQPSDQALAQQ
# [2] = target: T1, BcsA cellulose synthase (BcsA^HA-FLAG); assay: cryo-EM structure; Bcs macrocomplex co-expressed in E. coli and purified on anti-FLAG gel by BcsA^HA-FLAG, 20 mM HEPES pH 8.0, 120 mM NaCl, 5 mM MgCl2, 10 μM AppCp, 4 μM c-di-GMP, 0.01% LM-NPG; class of the c-di-GMP-saturated macrocomplex with local refinements; the BcsB crown refined from all particles; both …
binding [1],binding [2],Substance
binds,binds,BcsQ (E. coli)
binds,binds,BcsR (Bcs^HisR) (E. coli)

# These are yes or no findings as the source states them, for the method shown. Binding calls can cover weak binding; strength is not graded here. Tags and fused reporters may be left off the sequences shown.
